Experiment [1] has as its target T1, Put7-HA (Ylr283w with a C-terminal hemagglutinin tag) (S. cerevisiae) (UniProt Q05867).
T1 sequence: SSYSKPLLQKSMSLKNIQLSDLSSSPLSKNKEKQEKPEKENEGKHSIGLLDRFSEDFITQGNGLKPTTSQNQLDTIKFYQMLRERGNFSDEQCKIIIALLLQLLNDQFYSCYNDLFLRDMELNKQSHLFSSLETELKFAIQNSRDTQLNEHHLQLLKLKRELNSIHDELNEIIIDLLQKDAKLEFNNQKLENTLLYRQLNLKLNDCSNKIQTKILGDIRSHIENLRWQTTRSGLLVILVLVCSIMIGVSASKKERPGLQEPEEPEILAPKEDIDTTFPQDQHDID
The experiment can be described thus: co-IP; 1 mg crude mitochondria solubilized in IP buffer (20 mM HEPES-KOH pH 7.4, 1 mM CaCl2, 100 mM NaCl, 1% digitonin, 10% glycerol), 4 °C; IP with anti-V5 or anti-HA on Dynabeads Protein G; immunoblot with anti-HA or anti-V5. Background: In western blotting, separated proteins are transferred to a membrane and probed.

In experiment [2] the target is T2, Put7-V5 (Ylr283w with a C-terminal V5 tag) (S. cerevisiae) (UniProt Q05867).
T2 sequence: T1 sequence
The experiment can be described thus: native gel or EMSA; Blue-native PAGE (3–12% gradient Native Bis-Tris gel) of mitochondria solubilized in 1% digitonin, immunoblot with anti-V5; strains with or without PUT6/PUT7; cells also grown in ammonium sulfate, proline or glutamate. Background: A gel shift assay detects complexes by their altered migration in electrophoresis.

For experiment [3], the target named is Put6-V5 (Fmp32 with a C-terminal V5 tag) (S. cerevisiae). The description is as above.

These are yes or no findings as the source states them, for the method shown. Binding can be weak; no strength is given. For part of these data: Tags and fused reporters may be left off the sequences shown. For part of these data: Binding seen in cells or lysates may run through a third protein.

For “Put6-V5 (Fmp32 with a C-terminal V5 tag) (S. cerevisiae)”, the binding result in experiment [1] was “binds”. Put6 (Fmp32), endogenous: the binding result in experiment [2] is reported as “binds”.

B1: Put7 (Ylr283w), endogenous (protein, UniProt Q05867 30-314)
chain: T1 sequence
For the molecule B1, the binding result in experiment [3] was “binds”.

Source of the values: PMC7519068.
